Measurements as given in PMC2734569, “Functional mapping of the fission yeast DNA polymerase δ B-subunit Cdc1 by site-directed and random pentapeptide insertion mutagenesis” (BMC Molecular Biology, 2009).
Numbering of substitutions follows the chain as printed. These are yes or no findings as the source states them, for the method shown. Where a sequence is shown, tags or fusion partners need not be part of it.

Columns and labels:
Assay in all cases: two-hybrid; LexA-Cdc1 bait (pBTM116 or pBTM116BN) with Gal4 activation domain-Cdc27 prey (pGAD2F-Cdc27) in S. cerevisiae CTY10-5d; ONPG liquid culture beta-galactosidase assay, mean of triplicates, as percent of wild-type Cdc1
[1] = target: T1, Cdc1-J4 (Schizosaccharomyces pombe, UniProt P87324 1-462, Ile-GlyValProArgIle-Asp)
T1 construct: Cdc1, S. pombe, with a pentapeptide inserted after residue 127; also called J5; J13; source: yeast two-hybrid fusion, in S. cerevisiae CTY10-5d
T1 sequence (looked up): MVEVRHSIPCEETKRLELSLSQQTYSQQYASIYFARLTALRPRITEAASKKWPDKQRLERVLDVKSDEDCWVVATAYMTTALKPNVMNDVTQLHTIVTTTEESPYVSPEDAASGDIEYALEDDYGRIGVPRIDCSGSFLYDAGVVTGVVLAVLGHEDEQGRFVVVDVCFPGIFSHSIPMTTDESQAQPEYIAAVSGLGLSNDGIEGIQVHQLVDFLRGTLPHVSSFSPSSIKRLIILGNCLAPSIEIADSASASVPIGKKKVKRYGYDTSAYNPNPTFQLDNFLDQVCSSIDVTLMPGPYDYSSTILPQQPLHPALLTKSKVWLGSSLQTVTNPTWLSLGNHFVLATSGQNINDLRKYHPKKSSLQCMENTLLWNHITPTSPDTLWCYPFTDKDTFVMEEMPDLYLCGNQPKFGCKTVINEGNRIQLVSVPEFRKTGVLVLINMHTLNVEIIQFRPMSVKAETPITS

[2] = target: T2, Cdc1-J6 (Schizosaccharomyces pombe, UniProt P87324 1-462, Tyr-GlyValProHisTyr-Gly)
T2 construct: Cdc1, S. pombe, with a pentapeptide inserted after residue 124; source: yeast two-hybrid fusion, in S. cerevisiae CTY10-5d
T2 sequence (looked up): T1 sequence (looked up) with R126V, I127P, G128H, V129Y, P130G

[3] = target: T3, Cdc1-J1 (Schizosaccharomyces pombe, UniProt P87324 1-462, Thr-GlyValProLeuThr-Gly)
T3 construct: Cdc1, S. pombe, with a pentapeptide inserted after residue 141; source: yeast two-hybrid fusion, in S. cerevisiae CTY10-5d
T3 sequence (looked up): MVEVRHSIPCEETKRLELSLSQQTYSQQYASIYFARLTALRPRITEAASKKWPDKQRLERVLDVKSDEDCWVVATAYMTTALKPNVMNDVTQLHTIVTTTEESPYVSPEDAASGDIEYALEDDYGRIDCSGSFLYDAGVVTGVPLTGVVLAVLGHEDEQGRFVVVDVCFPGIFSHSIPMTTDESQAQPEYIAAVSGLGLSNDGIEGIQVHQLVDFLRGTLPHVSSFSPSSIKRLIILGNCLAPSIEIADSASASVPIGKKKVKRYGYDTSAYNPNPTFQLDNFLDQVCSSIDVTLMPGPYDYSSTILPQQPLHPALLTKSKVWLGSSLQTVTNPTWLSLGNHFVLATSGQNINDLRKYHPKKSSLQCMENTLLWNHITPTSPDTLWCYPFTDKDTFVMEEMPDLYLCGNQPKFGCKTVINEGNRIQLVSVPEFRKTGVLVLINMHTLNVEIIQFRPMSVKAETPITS

[4] = target: T4, Cdc1-J2 (Schizosaccharomyces pombe, UniProt P87324 1-462, Tyr-ArgGlyThrProTyr-Ser)
T4 construct: Cdc1, S. pombe, with a pentapeptide inserted after residue 25; also called J18; J20; source: yeast two-hybrid fusion, in S. cerevisiae CTY10-5d
T4 sequence (looked up): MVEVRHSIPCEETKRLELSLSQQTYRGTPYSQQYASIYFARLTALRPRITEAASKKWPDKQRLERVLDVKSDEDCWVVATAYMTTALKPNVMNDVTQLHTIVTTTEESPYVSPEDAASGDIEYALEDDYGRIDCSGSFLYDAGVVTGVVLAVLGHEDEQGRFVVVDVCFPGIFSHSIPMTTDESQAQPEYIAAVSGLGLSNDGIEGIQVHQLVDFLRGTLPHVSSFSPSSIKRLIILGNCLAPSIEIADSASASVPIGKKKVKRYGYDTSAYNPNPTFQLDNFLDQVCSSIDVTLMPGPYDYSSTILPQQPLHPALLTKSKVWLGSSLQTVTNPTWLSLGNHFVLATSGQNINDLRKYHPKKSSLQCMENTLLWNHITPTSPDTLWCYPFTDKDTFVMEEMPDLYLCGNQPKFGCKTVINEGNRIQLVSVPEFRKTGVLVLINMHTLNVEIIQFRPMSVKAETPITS

B1: Cdc27 (fission yeast DNA polymerase delta C-subunit) (natural protein, Schizosaccharomyces pombe, UniProt P30261 1-372, looked up)
chain: MEEWRNFLDIKVINESSLVTVDNLSLQLDISSEKAQEYLNMFYQGNDFLYPIYLIHGQPIDDEINLEIDEESQPISNFPVLQYILCDKSSLQEKQSRLKSGYKTVIFALSSAPLSDFDELLPAVYEIREKDVLYKKEDADKYGFIFNENSVPRVLKKAPSTHSPQLSVPSKTSTIDKTDTRSTEKTKGKDIFSNARNQKGNSSRKNKKAPLENHKEKEPLLPKEEKLSEQAKRERDDLKNIMQLEDESVSTTSVHDSEDDNLDSNNFQLEIGTEAKSAAPDEPQEIIKSVSGGKRRGKRKVKKYATTKDEEGFLVTKEEEVWESFSEDENISTGTSNVVRNKPTTVNIATKKKNTAQSKPQQKSIMSFFGKK
notes: DNA polymerase delta C-subunit Cdc27, S. pombe; prey plasmid pGAD2F-Cdc27; also called pGAD2F-Cdc27; source: yeast two-hybrid fusion, in S. cerevisiae CTY10-5d
binding [1]: no binding (tested: <1% of wild type (Table 1))
binding [2]: no binding (tested: <1% of wild type (Table 1))
binding [3]: no binding (tested: <1% of wild type (Table 1))
binding [4]: no binding (tested: <1% of wild type (Table 1))
